Measurements taken from patent publication US11052157B2 (priority 2014, dated 2021).

Key:
[1] = test system: intact, bacterially derived minicells; assay: Loading of compounds into minicells by the small-scale protocol, extraction and HPLC quantification; parameters: species or system Salmonella enterica serovar Typhimurium; conditions: for molecules (copies) packaged per minicell / quantity packaged within the minicells (HPLC): small-scale protocol; for molecules (copies) packaged per minicell: co-incubation, from HPLC content by Avogadro's number, MTX: 300 μg/ml, overnight; for quantity packaged within the minicells (HPLC): loading solution FLUTAX-1 200 μg/ml, FCP 300 μg/ml, paclitaxel 600 pg/ml (pH 3, 37° C. overnight), TF.Pac 1 mg/ml
[2] = test system: intact, bacterially derived minicells; assay: HPLC quantification (UV250nm and relative fluorescence) of doxorubicin loading in the presence of folic acid; parameters: species or system Salmonella enterica serovar Typhimurium; conditions: 0, 50, 400 μg/ml folic acid in the loading solution

With 2′-B-alanyl taxol formate [TF.Pac] the “loading efficiency, fold less than for FLUTAX-1” value [1] was about 5.4 fold, the “molecules (copies) packaged per minicell” value [1] was ~50,000 molecules per minicell and the “quantity packaged within the minicells (HPLC)” value [1] was 78 ng per 1×10^9 minicells.
With `CC(=O)O[C@H]1C(=O)[C@]2(C)[C@@H](OC(=O)[C@H](C)NC(=O)c3ccc4c(c3)C(=O)OC43c4ccc(O)cc4Oc4cc(O)ccc43)C[C@H]3OC[C@@]3(OC(C)=O)[C@H]2[C@H](OC(=O)c2ccccc2)[C@]2(O)C[C@H](OC(=O)[C@H](O)[C@@H](NC(=O)c3ccccc3)c3ccccc3)C(C)=C1C2(C)C` [FLUTAX-1] the “fold more molecules per minicell than paclitaxel” value ([1]; relative to unmodified paclitaxel (Example 9)) was 127 fold, the “molecules (copies) packaged per minicell” value [1] was ~270,000 molecules per minicell and the “quantity packaged within the minicells (HPLC)” value [1] was 570 ng per 1×10^9 minicells.
With `CC(=O)O[C@H]1C(=O)[C@@]2(C)[C@H]([C@H](OC(=O)c3ccccc3)[C@]3(O)C[C@H](OC(=O)[C@H](O)[C@@H](NC(=O)c4ccccc4)c4ccccc4)C(C)=C1C3(C)C)[C@]1(OC(C)=O)CO[C@@H]1C[C@@H]2O` [paclitaxel] the “fold fewer molecules per minicell than for FCP and FLUTAX-1, respectively” value ([1]; paclitaxel versus its fluorescent derivatives) was 110-130 fold and the “paclitaxel-loading efficiency with additional approaches” value ([1]; varying solvents, buffers, pH, cyclodextrin complexes, hydrotropes, membrane-destabilization methods) was 0-10 ng per 1×10^9 minicells.
In the case of doxorubicin, the “effect of folic acid (fluorescence quencher) on loading of doxorubicin into minicells” value [2] is reported as “affect adversely the loading of doxorubicin into minicells; also recorded: dose-dependently decreases the loading efficiency”.

Entries after “also recorded” stand apart in the source; their conditions may differ.
